Results taken from patent US20250270165A1, “COMPOSITIONS FOR AND METHODS OF MODULATING RNA STABILITY” (Duke University, priority 2022, published 2025).

Tested on: MALAT1 triple helix
Assay: Isothermal titration calorimetry (ITC)
Assay type: binding, human

Structure (SMILES)	DG [kcal/mol]	DH [kcal/mol]	−TDS [kcal/mol]
CN(C)CCCNC(=N)c1cccc(/N=N/Nc2cccc(C(=N)NCCCN(C)C)c2)c1 [DMZ-M1]	-1.73	-1.61	-0.115
CN1CCN(CCNC(=N)c2cccc(/N=N/Nc3cccc(C(=N)NCCN4CCN(C)CC4)c3)c2)CC1 [DMZ-M10]	-1.47	-0.318	-1.15
N=C(N)c1ccc(/N=N/Nc2ccc(C(=N)N)cc2)cc1 [DMZ-P0, diminazene, reference compound]	-1.46	-1.87	0.409
CN(C)CCCNC(=N)c1ccc(/N=N/Nc2ccc(C(=N)NCCCN(C)C)cc2)cc1 [DMZ-P1]	-1.46	-1.62	-0.16
N=C(NCc1ccc(Cl)cc1)c1ccc(/N=N/Nc2ccc(C(=N)NCc3ccc(Cl)cc3)cc2)cc1 [DMZ-P5]	-1.45	-1.62	0.167
N=C(NC1CCN(Cc2ccccc2)CC1)c1ccc(/N=N/Nc2ccc(C(=N)NC3CCN(Cc4ccccc4)CC3)cc2)cc1 [DMZ-P8]	-1.63	-0.87	-0.762
N=C(NCCN1CCNCC1)c1ccc(/N=N/Nc2ccc(C(=N)NCCN3CCNCC3)cc2)cc1 [DMZ-P9]	-1.5	-0.366	-1.13
N=C(NCCC1CCN(Cc2ccccc2)CC1)c1ccc(/N=N/Nc2ccc(C(=N)NCCC3CCN(Cc4ccccc4)CC3)cc2)cc1 [DMZ-P13]	-1.56	-0.65	-0.908
